# The list shows a part of the results.
# What was measured:
# Assay in all cases: glycan array binding signal (z-score within array); higher = stronger binding
# Conditions in all cases: glycan notation: IUPAC condensed, linker removed
# [1] = target: GlcNAc(b1-2)[GlcNAc(b1-4)]Man(a1-3)[GlcNAc(b1-4)][GlcNAc(b1-2)Man(a1-6)]Man(b1-4)GlcNAc(b1-4)GlcNAc
# How it was run: (§1)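 Glycan array binding is given as a within-array Z-score, which can be read as non-binding when negative. The arrays, 3228 of them, came from the Consortium for Functional Glycomics database and were retained only where the protein sequence was available. Z-scores were averaged across arrays of the same protein sequence at different concentrations or buffers and across linkers.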
# [2] = target: GlcNAc(b1-2)[GlcNAc(b1-4)]Man(a1-3)[GlcNAc(b1-4)][GlcNAc(b1-2)[GlcNAc(b1-6)]Man(a1-6)]Man(b1-4)GlcNAc(b1-4)GlcNAc
# How it was run: as §1
# [3] = target: GlcNAc(b1-2)[GlcNAc(b1-4)]Man(a1-3)[GlcNAc(b1-4)][GlcNAc(b1-2)[GlcNAc(b1-6)]Man(a1-6)]Man(b1-4)GlcNAc(b1-4)[Fuc(a1-6)]GlcNAc
# How it was run: as §1
# [4] = target: GlcNAc(b1-2)[GlcNAc(b1-6)]Man(a1-6)[GlcNAc(b1-2)Man(a1-3)]Man(b1-4)GlcNAc(b1-4)GlcNAc
# How it was run: as §1
# [5] = target: GlcNAc(b1-2)[GlcNAc(b1-6)]Man(a1-6)[GlcNAc(b1-2)Man(a1-3)]Man(b1-4)GlcNAc(b1-4)[Fuc(a1-6)]GlcNAc
# How it was run: as §1
# [6] = target: GlcNAc(b1-2)[GlcNAc(b1-6)]Man(a1-6)[GlcNAc(b1-4)][GlcNAc(b1-2)Man(a1-3)]Man(b1-4)GlcNAc(b1-4)GlcNAc
# How it was run: as §1
# [7] = target: GlcNAc(b1-3)Fuc
# How it was run: as §1
# [8] = target: GlcNAc(b1-3)Gal
# How it was run: as §1
# [9] = target: GlcNAc(b1-3)Gal(b1-3)GalNAc
# How it was run: as §1
# [10] = target: GlcNAc(b1-3)Gal(b1-4)Glc
# How it was run: as §1
# [11] = target: GlcNAc(b1-3)Gal(b1-4)GlcNAc
# How it was run: as §1
# [12] = target: GlcNAc(b1-3)Gal(b1-4)GlcNAc(b1-2)Man(a1-3)[GlcNAc(b1-3)Gal(b1-4)GlcNAc(b1-2)Man(a1-6)]Man(b1-4)GlcNAc(b1-4)GlcNAc
# How it was run: as §1
# [13] = target: GlcNAc(b1-3)Gal(b1-4)GlcNAc(b1-2)Man(a1-3)[GlcNAc(b1-3)Gal(b1-4)GlcNAc(b1-2)Man(a1-6)]Man(b1-4)GlcNAc(b1-4)[Fuc(a1-6)]GlcNAc
# How it was run: as §1
# [14] = target: GlcNAc(b1-3)Gal(b1-4)GlcNAc(b1-2)[GlcNAc(b1-3)Gal(b1-4)GlcNAc(b1-6)]Man(a1-6)[GlcNAc(b1-3)Gal(b1-4)GlcNAc(b1-2)Man(a1-3)]Man(b1-4)GlcNAc(b1-4)GlcNAc
# How it was run: as §1
# [15] = target: GlcNAc(b1-3)Gal(b1-4)GlcNAc(b1-3)Gal(b1-4)GlcNAc
# How it was run: as §1
# [16] = target: GlcNAc(b1-3)Gal(b1-4)GlcNAc(b1-3)Gal(b1-4)GlcNAc(b1-2)Man(a1-3)[GlcNAc(b1-3)Gal(b1-4)GlcNAc(b1-3)Gal(b1-4)GlcNAc(b1-2)Man(a1-6)]Man(b1-4)GlcNAc(b1-4)GlcNAc
# How it was run: as §1
# [17] = target: GlcNAc(b1-3)Gal(b1-4)GlcNAc(b1-3)Gal(b1-4)GlcNAc(b1-2)Man(a1-3)[GlcNAc(b1-3)Gal(b1-4)GlcNAc(b1-3)Gal(b1-4)GlcNAc(b1-2)Man(a1-6)]Man(b1-4)GlcNAc(b1-4)[Fuc(a1-6)]GlcNAc
# How it was run: as §1
# [18] = target: GlcNAc(b1-3)Gal(b1-4)GlcNAc(b1-3)Gal(b1-4)GlcNAc(b1-2)[GlcNAc(b1-3)Gal(b1-4)GlcNAc(b1-3)Gal(b1-4)GlcNAc(b1-6)]Man(a1-6)[GlcNAc(b1-3)Gal(b1-4)GlcNAc(b1-3)Gal(b1-4)GlcNAc(b1-2)Man(a1-3)]Man(b1-4)GlcNAc(b1-4)[Fuc(a1-6)]GlcNAc
# How it was run: as §1
# [19] = target: GlcNAc(b1-3)Gal(b1-4)GlcNAc(b1-3)Gal(b1-4)GlcNAc(b1-3)Gal(b1-4)GlcNAc(b1-2)Man(a1-3)[GlcNAc(b1-3)Gal(b1-4)GlcNAc(b1-3)Gal(b1-4)GlcNAc(b1-3)Gal(b1-4)GlcNAc(b1-2)Man(a1-6)]Man(b1-4)GlcNAc(b1-4)GlcNAc
# How it was run: as §1
# [20] = target: GlcNAc(b1-3)Gal(b1-4)GlcNAc(b1-3)Gal(b1-4)GlcNAc(b1-3)Gal(b1-4)GlcNAc(b1-2)Man(a1-3)[GlcNAc(b1-3)Gal(b1-4)GlcNAc(b1-3)Gal(b1-4)GlcNAc(b1-3)Gal(b1-4)GlcNAc(b1-2)Man(a1-6)]Man(b1-4)GlcNAc(b1-4)[Fuc(a1-6)]GlcNAc
# How it was run: as §1
# [21] = target: GlcNAc(b1-3)Gal(b1-4)GlcNAc(b1-3)Gal(b1-4)GlcNAc(b1-3)Gal(b1-4)GlcNAc(b1-2)[GlcNAc(b1-3)Gal(b1-4)GlcNAc(b1-3)Gal(b1-4)GlcNAc(b1-3)Gal(b1-4)GlcNAc(b1-6)]Man(a1-6)[GlcNAc(b1-3)Gal(b1-4)GlcNAc(b1-3)Gal(b1-4)GlcNAc(b1-3)Gal(b1-4)GlcNAc(b1-2)Man(a1-3)]Man(b1-4)GlcNAc(b1-4)[Fuc(a1-6)]GlcNAc
# How it was run: as §1
# [22] = target: GlcNAc(b1-3)Gal(b1-4)GlcNAc(b1-3)Gal(b1-4)GlcNAc(b1-3)Gal(b1-4)GlcNAc(b1-3)Gal(b1-4)GlcNAc(b1-2)Man(a1-3)[GlcNAc(b1-3)Gal(b1-4)GlcNAc(b1-3)Gal(b1-4)GlcNAc(b1-3)Gal(b1-4)GlcNAc(b1-3)Gal(b1-4)GlcNAc(b1-2)Man(a1-6)]Man(b1-4)GlcNAc(b1-4)GlcNAc
# How it was run: as §1
# [23] = target: GlcNAc(b1-3)Gal(b1-4)GlcNAc(b1-3)Gal(b1-4)GlcNAc(b1-3)Gal(b1-4)GlcNAc(b1-3)Gal(b1-4)GlcNAc(b1-2)Man(a1-3)[GlcNAc(b1-3)Gal(b1-4)GlcNAc(b1-3)Gal(b1-4)GlcNAc(b1-3)Gal(b1-4)GlcNAc(b1-3)Gal(b1-4)GlcNAc(b1-2)Man(a1-6)]Man(b1-4)GlcNAc(b1-4)[Fuc(a1-6)]GlcNAc
# How it was run: as §1
# [24] = target: GlcNAc(b1-3)Gal(b1-4)GlcNAc(b1-3)Gal(b1-4)GlcNAc(b1-3)Gal(b1-4)GlcNAc(b1-3)Gal(b1-4)GlcNAc(b1-2)[GlcNAc(b1-3)Gal(b1-4)GlcNAc(b1-3)Gal(b1-4)GlcNAc(b1-3)Gal(b1-4)GlcNAc(b1-3)Gal(b1-4)GlcNAc(b1-6)]Man(a1-6)[GlcNAc(b1-3)Gal(b1-4)GlcNAc(b1-3)Gal(b1-4)GlcNAc(b1-3)Gal(b1-4)GlcNAc(b1-3)Gal(b1-4)GlcNAc(b1-2)Man(a1-3)]Man(b1-4)GlcNAc(b1-4)[Fuc(a1-6)]GlcNAc
# How it was run: as §1
# [25] = target: GlcNAc(b1-3)Gal(b1-4)GlcNAc(b1-3)Gal(b1-4)GlcNAc(b1-3)GalNAc
# How it was run: as §1
# [26] = target: GlcNAc(b1-3)Gal(b1-4)GlcNAc(b1-3)GalNAc
# How it was run: as §1
# [27] = target: GlcNAc(b1-3)Gal(b1-4)GlcNAc(b1-3)[GlcNAc(b1-3)Gal(b1-4)GlcNAc(b1-3)]GalNAc
# How it was run: as §1
# [28] = target: GlcNAc(b1-3)Gal(b1-4)GlcNAc(b1-6)[Gal(b1-3)]GalNAc
# How it was run: as §1
# [29] = target: GlcNAc(b1-3)Gal(b1-4)GlcNAc(b1-6)[GlcNAc(b1-3)Gal(b1-3)]GalNAc
# How it was run: as §1
# [30] = target: GlcNAc(b1-3)Gal(b1-4)GlcNAc(b1-6)[GlcNAc(b1-3)]Gal(b1-4)GlcNAc
# How it was run: as §1
# [31] = target: GlcNAc(b1-3)GalNAc
# How it was run: as §1
# [32] = target: GlcNAc(b1-3)Man
# How it was run: as §1
# [33] = target: GlcNAc(b1-3)[GlcNAc(b1-4)][GlcNAc(b1-6)]GlcNAc
# How it was run: as §1
# [34] = target: GlcNAc(b1-3)[GlcNAc(b1-6)]Gal(b1-4)GlcNAc
# How it was run: as §1
# [35] = target: GlcNAc(b1-3)[GlcNAc(b1-6)]GalNAc
# How it was run: as §1
# [36] = target: GlcNAc(b1-4)Gal(b1-4)GlcNAc
# How it was run: as §1
# [37] = target: GlcNAc(b1-4)GlcNAc
# How it was run: as §1
# [38] = target: GlcNAc(b1-4)GlcNAc(b1-4)GlcNAc
# How it was run: as §1
binder,measurement,setting,value
"MtEccB1 (Mycobacterium tuberculosis H37Rv), O69734 (protein) MGLRLTTKVQVSGWRFLLRRLEHAIVRRDTRMFDDPLQFYSRSIALGIVVAVLILAGAALLAYFKPQGKLGGTSLFTDRATNQLYVLLSGQLHPVYNLTSARLVLGNPANPATVKSSELSKLPMGQTVGIPGAPYATPVSAGSTSIWTLCDTVARADSTSPVVQTAVIAMPLEIDASIDPLQSHEAVLVSYQGETWIVTTKGRHAIDLTDRALTSSMGIPVTARPTPISEGMFNALPDMGPWQLPPIPAAGAPNSLGLPDDLVIGSVFQIHTDKGPQYYVVLPDGIAQVNATTAAALRATQAHGLVAPPAMVPSLVVRIAERVYPSPLPDEPLKIVSRPQDPALCWSWQRSAGDQSPQSTVLSGRHLPISPSAMNMGIKQIHGTATVYLDGGKFVALQSPDPRYTESMYYIDPQGVRYGVPNAETAKSLGLSSPQNAPWEIVRLLVDGPVLSKDAALLEHDTLPADPSPRKVPAGASGAP",glycan array binding signal (z-score),[1],-0.192
same,glycan array binding signal (z-score),[2],-0.895
same,glycan array binding signal (z-score),[3],2.03
same,glycan array binding signal (z-score),[4],0.087
same,glycan array binding signal (z-score),[5],0.025
same,glycan array binding signal (z-score),[6],-2.3
same,glycan array binding signal (z-score),[7],1.3
same,glycan array binding signal (z-score),[8],-0.297
same,glycan array binding signal (z-score),[9],1.4
same,glycan array binding signal (z-score),[10],-0.262
same,glycan array binding signal (z-score),[11],1.13
same,glycan array binding signal (z-score),[12],0.404
same,glycan array binding signal (z-score),[13],-0.745
same,glycan array binding signal (z-score),[14],1.32
same,glycan array binding signal (z-score),[15],-0.007
same,glycan array binding signal (z-score),[16],0.756
same,glycan array binding signal (z-score),[17],0.269
same,glycan array binding signal (z-score),[18],2.12
same,glycan array binding signal (z-score),[19],0.955
same,glycan array binding signal (z-score),[20],0.902
same,glycan array binding signal (z-score),[21],2.37
same,glycan array binding signal (z-score),[22],-0.114
same,glycan array binding signal (z-score),[23],-0.532
same,glycan array binding signal (z-score),[24],3.92
same,glycan array binding signal (z-score),[25],0.477
same,glycan array binding signal (z-score),[26],-0.11
same,glycan array binding signal (z-score),[27],1.16
same,glycan array binding signal (z-score),[28],1.21
same,glycan array binding signal (z-score),[29],0.429
same,glycan array binding signal (z-score),[30],-1.28
same,glycan array binding signal (z-score),[31],-0.534
same,glycan array binding signal (z-score),[32],-1.1
same,glycan array binding signal (z-score),[33],0.769
same,glycan array binding signal (z-score),[34],-0.11
same,glycan array binding signal (z-score),[35],-0.073
same,glycan array binding signal (z-score),[36],-0.68
same,glycan array binding signal (z-score),[37],0.434
same,glycan array binding signal (z-score),[38],-1.03

# 2 entries picked at random from those above:
binder,measurement,setting,value
"MtEccB1 (Mycobacterium tuberculosis H37Rv), O69734 (protein) MGLRLTTKVQVSGWRFLLRRLEHAIVRRDTRMFDDPLQFYSRSIALGIVVAVLILAGAALLAYFKPQGKLGGTSLFTDRATNQLYVLLSGQLHPVYNLTSARLVLGNPANPATVKSSELSKLPMGQTVGIPGAPYATPVSAGSTSIWTLCDTVARADSTSPVVQTAVIAMPLEIDASIDPLQSHEAVLVSYQGETWIVTTKGRHAIDLTDRALTSSMGIPVTARPTPISEGMFNALPDMGPWQLPPIPAAGAPNSLGLPDDLVIGSVFQIHTDKGPQYYVVLPDGIAQVNATTAAALRATQAHGLVAPPAMVPSLVVRIAERVYPSPLPDEPLKIVSRPQDPALCWSWQRSAGDQSPQSTVLSGRHLPISPSAMNMGIKQIHGTATVYLDGGKFVALQSPDPRYTESMYYIDPQGVRYGVPNAETAKSLGLSSPQNAPWEIVRLLVDGPVLSKDAALLEHDTLPADPSPRKVPAGASGAP",glycan array binding signal (z-score),[8],-0.297
same,glycan array binding signal (z-score),[26],-0.11

# — the supplement of paper PMC8728848
